PubChem BioAssay AID504444 (National Center for Advancing Translational Sciences (NCATS), 2011)
Screen size: about 360,000 compounds; about 7,500 (2.1%) were called active. The shares of active, inactive and inconclusive entries below differ from those in the screen. Calls follow the shape of the dose curve; as a rule, active = well fitted inhibition curve with a large enough effect; inconclusive = small, poorly fitted or top-dose-only effect, or effect the other way; inactive = flat fitted curve, though single readings scatter. Potencies beside an inconclusive call are fits to weak or partial responses and may not hold up.

experiment: Nrf2 qHTS screen for inhibitors; conditions: A549 ARE-Fluc reporter, luciferase luminescence, 18-24 h; series mostly up to 46 µM; also: nearly all actives have a fitted effect of over 60% in size
Outline: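 Two sequential reads on A549 ARE_Fluc cells exposed to compound for 18-24 h: a CellTiter-Fluor fluorescence read for viability, then a luciferase luminescence read for Nrf2/ARE activity.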
Potency is read from the fitted curve at half-maximal effect.

Row | SMILES | Potency
1 | CCc1ccc(NC(=O)c2onc(C)c2Cl)cc1 | inconclusive: 3.66 µM [activator, single point]
2 | CC(C)N1C[C@@]23C=C[C@@H](O2)C(C(=O)OCc2ccccc2)[C@H]3C1=O (some centres undefined) | inactive
3 | CCCN(C(=O)CSc1nnc(N)s1)c1c(N)n(Cc2ccccc2)c(=O)[nH]c1=O | inconclusive: 5.8 µM [falling, partial curve, poor fit]
4 | Cc1ccc(N2CC(C(=O)N3CCC(C(=O)Nc4nnc(C(C)(C)C)s4)CC3)CC2=O)cc1 (centres undefined) | inconclusive: 8.2 µM [falling, partial curve, poor fit]
5 | CSc1ccc(/C=N/Nc2ccc(Cl)c(C(=O)O)c2)cc1 | inconclusive: 6.51 µM [activator, partial curve]
6 | Cc1csc(Nc2nc(N)c(C(=O)Nc3ccccc3)o2)n1 | inconclusive: 4.11 µM [activator, full curve, poor fit]
7 | COc1ccc(-c2onc(C)c2C)cc1S(=O)(=O)N1c2ccccc2CC1C (centres undefined) | inconclusive: 25.9 µM [falling, partial curve, poor fit]
8 | COc1ccc(C(=O)n2cnnc2N)cc1 | inconclusive: 18.4 µM [falling, single point]
9 | Cc1cc(=O)[nH]c(SCCCOc2ccccc2Cl)n1 | inconclusive: 18.4 µM [falling, partial curve]
10 | CCc1ccccc1NC(=O)Cn1c(-c2nonc2N)nc2ccccc21 | inactive
11 | O=C(COC(=O)c1cccnc1)Nc1ccc2c(c1)OCO2 | inactive
12 | CC(=O)Oc1ccccc1C(=O)C=Cc1cccc([N+](=O)[O-])c1 | inactive
13 | CCCCCCSc1cccc(-c2nc3ccc(C)cn3c2NC2CCCCC2)c1 | inconclusive: 14.6 µM [falling, partial curve, poor fit]
14 | CCC/C(O)=C1\C(=O)CCCC1=NCCc1c(C)[nH]c2ccc(OC)cc12 | inconclusive: 25.9 µM [falling, partial curve, poor fit]
15 | O=C(Cc1ccc([N+](=O)[O-])cc1)c1ccc(O)cc1O | inactive
16 | O=C1CCCC2=C1C(c1ccc(Cl)cc1)C1C(=O)c3ccccc3C1=N2 (centres undefined) | inconclusive: 18.4 µM [falling, partial curve, poor fit]
17 | Cc1ccc(/C(O)=C2/C(=O)C(=O)N(c3ccccn3)C2c2cccc([N+](=O)[O-])c2)cc1 (centres undefined) | inconclusive: 8.2 µM [falling, partial curve, poor fit]
18 | CC(=O)c1c(C)[nH]c(C(=O)OCC(=O)N2CCN(S(=O)(=O)c3ccc(C)cc3C)CC2)c1C | inconclusive: 25.9 µM [falling, single point]
19 | Cc1cccc2nc(COc3ccc4ccccc4c3Br)cn12 | inconclusive: 10.3 µM [activator, partial curve]
20 | Cc1cc(N2CCN(Cc3nc(-c4ccc(Cl)cc4)oc3C)CC2)cc(C)n1 | inactive
21 | CCn1cc(CCCC(=O)NCc2ccc(OC)cc2)c2ccccc21 | inconclusive: 5.8 µM [falling, partial curve, poor fit]
22 | COc1ccc(OCc2cc(C(=O)NC(C)c3cnn(C)c3)no2)c(Cl)c1 (centres undefined) | inconclusive: 14.6 µM [activator, partial curve]
23 | O=[N+]([O-])c1ccc(N2CCN(c3ccccc3)CC2)cc1 | inconclusive: 32.6 µM [falling, single point]

Row | SMILES | Potency
24 | CC1(C)Cc2c(cnn2-c2ccc(F)cc2)C(NC(=O)CCc2ccncc2)C1 (centres undefined) | inconclusive: 3.26 µM [activator, partial curve, poor fit]
25 | COc1cccc(N2CCN(S(=O)(=O)c3ccc4[nH]c5c(c4c3)CCCC5)CC2)c1 | inconclusive: 20.6 µM [falling, single point]
26 | CN=C1SC(CC(=O)NCCc2ccc(OC)c(OC)c2)C(=O)N1C (centres undefined) | inconclusive: 25.9 µM [activator, partial curve, poor fit]
27 | CCOC(=O)c1cccc(Nc2c3c(nc4ccccc24)CCC3)c1 | active: 20.6 µM
28 | Cc1cccc(NC(=O)c2c(NC(=O)C(F)(F)F)sc3c2CCCCC3)c1 | active: 2.59 µM
29 | C/C(=N/NC(=O)OC(C)(C)C)c1ccco1 | inconclusive: 8.2 µM [activator, partial curve]
30 | O=C(O)c1ccc(N/N=C/C=C/c2ccc([N+](=O)[O-])o2)cc1 | inconclusive: 29.1 µM [falling, single point]
31 | Cc1cc(/C=N/NC(N)=S)c(O)c(/C=N/NC(N)=S)c1 | inactive
32 | O=C(NCC1CCCCC1)c1cc(S(=O)(=O)N2CCCCC2)ccc1N1CCOCC1 | inactive
33 | COc1cccc(/C=N/NC(=O)C(=O)N2CCCC2)c1 | inconclusive: 11.6 µM [activator, partial curve, poor fit]
34 | Cc1ccc2[nH]c3c(=O)n(CC(=O)N4CCN(C)CC4)ncc3c2c1 | inconclusive: 29.1 µM [falling, single point]
35 | Cc1cc(NO)nc(-c2ccc(Br)cc2)n1 | inconclusive: 29.1 µM [activator, single point]
36 | O=C(Nc1ccc2c(c1)OCO2)c1cc(-c2ccccc2Cl)on1 | inconclusive: 2.59 µM [activator, full curve]
37 | O=C(Nc1ccc(N2CCCC2=O)cc1)c1cccc(F)c1 | inconclusive: 0.58 µM [activator, full curve, poor fit]
38 | C=CCOC(=O)C1=C(C)NC(=O)NC1c1ccc(O)cc1 (centres undefined) | inactive
39 | O=C(Nc1ccc(Cl)c(Cl)c1)Nc1nc(-c2ccccc2)cs1 | inconclusive: 11.6 µM [falling, partial curve, poor fit]
40 | O=C(NNc1c(Cl)cccc1Cl)C1CCC1 | inconclusive: 0.82 µM [falling, full curve, poor fit]
41 | O=C(NC(=S)Nc1ccccc1Br)c1ccco1 | inconclusive: 18.4 µM [activator, partial curve]
42 | C/C(=N\NC(=O)CCc1ccc(S(=O)(=O)N2CCOCC2)cc1)c1ccccc1Cl | inconclusive: 0.92 µM [falling, full curve, poor fit]
43 | Cc1ccc(C(=O)NCCN(C)C)c(C)c1 | inactive
44 | COc1ccccc1NC(=O)Cn1nnc(C(=O)NCc2ccc3c(c2)OCO3)c1N | inconclusive: 32.6 µM [falling, single point]
45 | Cc1nn(Cc2ccccc2Cl)c(C)c1NC(=O)NC12CC3CC(CC(C3)C1)C2 | inconclusive: 20.6 µM [falling, single point]
46 | Cc1ccc(Nc2nc(-c3cccs3)cs2)nc1 | inconclusive: 0.82 µM [activator, partial curve]

Of the compounds above, these have a Cl atom.
Row | SMILES | Potency
1 | CCc1ccc(NC(=O)c2onc(C)c2Cl)cc1 | inconclusive: 3.66 µM [activator, single point]
5 | CSc1ccc(/C=N/Nc2ccc(Cl)c(C(=O)O)c2)cc1 | inconclusive: 6.51 µM [activator, partial curve]
9 | Cc1cc(=O)[nH]c(SCCCOc2ccccc2Cl)n1 | inconclusive: 18.4 µM [falling, partial curve]
16 | O=C1CCCC2=C1C(c1ccc(Cl)cc1)C1C(=O)c3ccccc3C1=N2 (centres undefined) | inconclusive: 18.4 µM [falling, partial curve, poor fit]
20 | Cc1cc(N2CCN(Cc3nc(-c4ccc(Cl)cc4)oc3C)CC2)cc(C)n1 | inactive
22 | COc1ccc(OCc2cc(C(=O)NC(C)c3cnn(C)c3)no2)c(Cl)c1 (centres undefined) | inconclusive: 14.6 µM [activator, partial curve]
36 | O=C(Nc1ccc2c(c1)OCO2)c1cc(-c2ccccc2Cl)on1 | inconclusive: 2.59 µM [activator, full curve]
39 | O=C(Nc1ccc(Cl)c(Cl)c1)Nc1nc(-c2ccccc2)cs1 | inconclusive: 11.6 µM [falling, partial curve, poor fit]
40 | O=C(NNc1c(Cl)cccc1Cl)C1CCC1 | inconclusive: 0.82 µM [falling, full curve, poor fit]
42 | C/C(=N\NC(=O)CCc1ccc(S(=O)(=O)N2CCOCC2)cc1)c1ccccc1Cl | inconclusive: 0.92 µM [falling, full curve, poor fit]
45 | Cc1nn(Cc2ccccc2Cl)c(C)c1NC(=O)NC12CC3CC(CC(C3)C1)C2 | inconclusive: 20.6 µM [falling, single point]

(list continues)

Row | SMILES | Potency
47 | Cc1cc(SCC(=O)Nc2cccc(S(N)(=O)=O)c2)c(C)cc1Br | inconclusive: 16.4 µM [falling, partial curve]
48 | O=C(CSc1nncc2ccccc12)Nc1cccc(O)c1 | inconclusive: 13 µM [falling, partial curve]
49 | CN1CCN2c3ccccc3CC3(C(=O)OC(C)(C)OC3=O)C2C1 (centres undefined) | inactive
50 | COc1ccccc1NS(=O)(=O)c1cc(NC(=O)C2=NNC(=O)CC2)ccc1C | inconclusive: 23.1 µM [falling, partial curve, poor fit]
51 | COc1ccc(-c2nn(-c3ccccc3)cc2/C=N/O)cc1OC | inactive
52 | O=C(CN1CCN(c2ccc(Cl)cc2)CC1)NCc1ccccc1 | inconclusive: 20.6 µM [falling, partial curve, poor fit]
53 | NC(=O)c1ccc[n+](CC(=O)c2ccc(F)cc2)c1 | inactive
54 | COc1ccc(CNC(=O)CSc2cccc3cccnc23)cc1 | inactive
55 | CCOC(=O)c1oc2c(c1C)-c1nn(Cc3ccc(Cl)cc3)cc1CC2 | inconclusive: 23.1 µM [falling, single point]
56 | CCCn1c(SCC(=O)c2cc(C)n(-c3ccc4c(c3)OCO4)c2C)n[nH]c1=O | inconclusive: 18.4 µM [falling, partial curve]
57 | COc1ccc(/C=N/Nc2cc(C)nc3ccccc23)cc1 | inconclusive: 6.51 µM [falling, single point]
58 | Cc1ccc(/C=C2\CC(C)CC3=C2NC(=S)NC3c2ccc(C)cc2)cc1 (centres undefined) | inactive
59 | COc1ccccc1NC(=O)N1CCC(C(=O)c2ccc(Cl)cc2)CC1 | inconclusive: 20.6 µM [falling, partial curve, poor fit]
60 | O=S(=O)(c1ccc(NCCOc2ccccc2)nc1)N1CCCC1 | inactive
61 | Cc1ccc(Nc2c(-c3ccco3)nc3nc(C)cc(C)n23)cc1 | inconclusive: 3.26 µM [activator, full curve, poor fit]
62 | CCOC(=O)C1=C(COC(=O)COc2ccc(C(=O)CC)cc2)NC(=O)NC1C (centres undefined) | inconclusive: 11.6 µM [activator, partial curve, poor fit]
63 | CCSc1nnc(SCC(=O)NNC(=O)c2ccccc2F)s1 | inconclusive: 29.1 µM [activator, single point]
64 | CCC(C)n1c(SCC(=O)NC2CCS(=O)(=O)C2)nc2ccccc2c1=O (centres undefined) | inactive
65 | CCC(=O)NCCc1nc2cc(NC(=O)c3cccs3)ccc2n1C | inconclusive: 6.51 µM [activator, partial curve]
66 | COc1cc(/C=C/C(=O)NCc2cccnc2)cc(OC)c1OC | inactive
67 | O=[N+]([O-])c1ccc(-c2csc(Nc3ccccc3)n2)cc1 | inconclusive: 3.66 µM [activator, single point]
68 | CN(C)/C=N/c1sc2c(c1C#N)CCCC2 | inconclusive: 10.3 µM [activator, partial curve]
69 | NC(=O)N/N=C/c1cn(-c2ccccc2)nc1-c1ccccc1 | inconclusive: 18.4 µM [activator, partial curve, poor fit]

Looked up one by one from above (2):
Row | SMILES | Potency
52 | O=C(CN1CCN(c2ccc(Cl)cc2)CC1)NCc1ccccc1 | inconclusive: 20.6 µM [falling, partial curve, poor fit]
9 | Cc1cc(=O)[nH]c(SCCCOc2ccccc2Cl)n1 | inconclusive: 18.4 µM [falling, partial curve]
